# Laboratory results reported in publication PMC6783653, “TIP30 counteracts cardiac hypertrophy and failure by inhibiting translational elongation” (EMBO Molecular Medicine, 2019).
# Results are given in words; binding and its absence hold for the method and conditions named. In cells and extracts the contact can be indirect. Binding calls can cover weak binding; strength is not graded here. Tags and fused reporters may be left off the sequences shown.
# Biological target: T1, GST-TIP30 (full-length TIP30, GST fusion, bacterial) (rat) (UniProt B0BNF8)
# T1 sequence: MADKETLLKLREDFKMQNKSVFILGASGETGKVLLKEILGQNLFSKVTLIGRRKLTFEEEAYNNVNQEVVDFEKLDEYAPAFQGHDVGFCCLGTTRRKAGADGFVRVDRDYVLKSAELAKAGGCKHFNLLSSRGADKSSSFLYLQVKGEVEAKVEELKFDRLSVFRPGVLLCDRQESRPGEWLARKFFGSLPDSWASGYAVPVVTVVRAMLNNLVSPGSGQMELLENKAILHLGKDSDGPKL
# Test: pull-down; GST-TIP30 on glutathione agarose beads, His-tagged eEF1A1 mutants, Western blot
row,binding,Substance
1,no binding,His-tagged eEF1A1 mutant lacking the middle domain (rat) (domain or fragment)
2,binds,His-tagged eEF1A1 mutant lacking domain three (rat) (domain or fragment)
3,binds,His-tagged eEF1A1 mutant lacking domain one (rat) (domain or fragment)
